No constants are given. Whether binding was seen depends on the method and setting. For some of these results: In cells and extracts the contact can be indirect. Some results given as binding are weak or reduced against the parent protein; the word gives no strength. For some of these results: Tags and fused reporters may be left off the sequences shown.
Experiments:
[1] = molecular target: BTN3A1 full-length (co-IP) (human) (UniProt O00481); assay: co-immunoprecipitation from co-transfected cells, IP anti-FLAG, western blot anti-HA
[2] = molecular target: BTN3A1 full-length (co-IP) (human) (UniProt O00481); assay: co-immunoprecipitation from co-transfected cells, IP anti-FLAG, western blot
[3] = molecular target: BTN3A2 full-length (co-IP) (human) (UniProt P78410); assay: as above
[4] = molecular target: BTN3A3 full-length (co-IP) (human) (UniProt O00478); assay: as above
[5] = molecular target: AXL full-length (co-IP) (human) (UniProt P30530); assay: as above
[6] = molecular target: T1, NFASC (recombinant) (human) (UniProt O94856); assay: SPR, NFASC immobilized, CNTN1 ECD-Fc injected at 250 nM
T1 sequence (looked up): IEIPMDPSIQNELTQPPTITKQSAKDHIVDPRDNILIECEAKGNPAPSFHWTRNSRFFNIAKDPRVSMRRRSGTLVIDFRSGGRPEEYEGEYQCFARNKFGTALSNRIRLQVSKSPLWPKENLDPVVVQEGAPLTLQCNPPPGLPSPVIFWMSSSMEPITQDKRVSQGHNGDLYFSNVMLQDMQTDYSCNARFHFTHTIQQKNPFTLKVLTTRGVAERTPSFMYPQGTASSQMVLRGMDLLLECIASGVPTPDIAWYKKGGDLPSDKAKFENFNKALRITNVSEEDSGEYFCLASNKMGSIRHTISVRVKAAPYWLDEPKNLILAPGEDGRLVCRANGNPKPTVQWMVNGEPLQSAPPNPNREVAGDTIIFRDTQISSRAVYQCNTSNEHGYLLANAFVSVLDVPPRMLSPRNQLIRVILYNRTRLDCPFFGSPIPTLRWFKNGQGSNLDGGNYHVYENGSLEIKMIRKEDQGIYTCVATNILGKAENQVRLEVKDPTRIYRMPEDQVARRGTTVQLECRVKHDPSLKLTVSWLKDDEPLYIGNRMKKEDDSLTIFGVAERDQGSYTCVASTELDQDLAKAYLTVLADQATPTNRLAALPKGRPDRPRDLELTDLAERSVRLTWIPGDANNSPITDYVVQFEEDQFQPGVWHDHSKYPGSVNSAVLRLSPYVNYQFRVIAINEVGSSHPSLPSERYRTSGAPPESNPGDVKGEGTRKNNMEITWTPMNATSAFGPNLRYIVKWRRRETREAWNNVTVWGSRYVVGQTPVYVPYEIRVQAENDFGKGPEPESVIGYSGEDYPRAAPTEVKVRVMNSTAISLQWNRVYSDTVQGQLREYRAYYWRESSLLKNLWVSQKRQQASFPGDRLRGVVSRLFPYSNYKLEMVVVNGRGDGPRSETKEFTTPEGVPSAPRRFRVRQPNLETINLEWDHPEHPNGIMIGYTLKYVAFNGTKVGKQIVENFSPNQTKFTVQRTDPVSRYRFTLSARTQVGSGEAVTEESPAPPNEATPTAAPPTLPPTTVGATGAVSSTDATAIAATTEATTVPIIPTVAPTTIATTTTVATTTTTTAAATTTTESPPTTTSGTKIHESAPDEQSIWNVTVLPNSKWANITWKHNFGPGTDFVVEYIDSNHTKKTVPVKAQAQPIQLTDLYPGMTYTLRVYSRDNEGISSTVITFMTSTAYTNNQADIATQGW

Protein sequences, listed by entry. Tags and fused reporters are not part of them. Residues count along the entry.
UniProt O00481, residues 30-513: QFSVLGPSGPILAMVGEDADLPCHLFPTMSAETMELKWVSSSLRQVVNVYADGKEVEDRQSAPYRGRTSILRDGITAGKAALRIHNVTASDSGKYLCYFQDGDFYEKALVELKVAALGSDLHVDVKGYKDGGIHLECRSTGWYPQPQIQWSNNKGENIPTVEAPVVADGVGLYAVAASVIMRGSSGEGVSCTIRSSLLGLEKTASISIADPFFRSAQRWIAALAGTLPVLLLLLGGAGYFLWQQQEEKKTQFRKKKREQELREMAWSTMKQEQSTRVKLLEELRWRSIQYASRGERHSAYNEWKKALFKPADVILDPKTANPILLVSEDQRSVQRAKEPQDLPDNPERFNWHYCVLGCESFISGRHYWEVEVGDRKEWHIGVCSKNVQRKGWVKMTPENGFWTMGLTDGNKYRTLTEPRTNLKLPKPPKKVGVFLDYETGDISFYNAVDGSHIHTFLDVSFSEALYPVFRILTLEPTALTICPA
UniProt P78410, residues 30-334: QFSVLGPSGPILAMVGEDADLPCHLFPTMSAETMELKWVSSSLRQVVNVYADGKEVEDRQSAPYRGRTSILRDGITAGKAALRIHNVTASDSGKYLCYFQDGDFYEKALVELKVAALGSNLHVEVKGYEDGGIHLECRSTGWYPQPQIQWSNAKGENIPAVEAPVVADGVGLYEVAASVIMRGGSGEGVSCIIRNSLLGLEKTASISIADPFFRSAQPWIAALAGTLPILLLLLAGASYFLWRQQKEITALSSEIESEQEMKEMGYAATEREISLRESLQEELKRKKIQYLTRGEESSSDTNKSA
UniProt O00478, residues 30-584: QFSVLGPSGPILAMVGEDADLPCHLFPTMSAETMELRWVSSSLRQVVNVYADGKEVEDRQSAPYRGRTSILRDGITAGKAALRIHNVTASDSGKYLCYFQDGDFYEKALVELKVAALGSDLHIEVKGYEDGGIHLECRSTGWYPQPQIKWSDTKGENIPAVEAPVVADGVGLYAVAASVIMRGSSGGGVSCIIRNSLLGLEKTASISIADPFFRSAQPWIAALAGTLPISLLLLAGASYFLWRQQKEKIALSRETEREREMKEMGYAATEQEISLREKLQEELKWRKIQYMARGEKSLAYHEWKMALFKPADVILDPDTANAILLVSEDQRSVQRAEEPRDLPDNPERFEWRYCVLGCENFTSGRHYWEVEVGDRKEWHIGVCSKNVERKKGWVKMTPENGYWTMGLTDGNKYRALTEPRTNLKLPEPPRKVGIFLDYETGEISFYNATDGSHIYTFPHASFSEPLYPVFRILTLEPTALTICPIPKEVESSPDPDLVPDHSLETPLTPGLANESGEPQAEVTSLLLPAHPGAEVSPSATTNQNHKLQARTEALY
UniProt P30530, residues 26-894: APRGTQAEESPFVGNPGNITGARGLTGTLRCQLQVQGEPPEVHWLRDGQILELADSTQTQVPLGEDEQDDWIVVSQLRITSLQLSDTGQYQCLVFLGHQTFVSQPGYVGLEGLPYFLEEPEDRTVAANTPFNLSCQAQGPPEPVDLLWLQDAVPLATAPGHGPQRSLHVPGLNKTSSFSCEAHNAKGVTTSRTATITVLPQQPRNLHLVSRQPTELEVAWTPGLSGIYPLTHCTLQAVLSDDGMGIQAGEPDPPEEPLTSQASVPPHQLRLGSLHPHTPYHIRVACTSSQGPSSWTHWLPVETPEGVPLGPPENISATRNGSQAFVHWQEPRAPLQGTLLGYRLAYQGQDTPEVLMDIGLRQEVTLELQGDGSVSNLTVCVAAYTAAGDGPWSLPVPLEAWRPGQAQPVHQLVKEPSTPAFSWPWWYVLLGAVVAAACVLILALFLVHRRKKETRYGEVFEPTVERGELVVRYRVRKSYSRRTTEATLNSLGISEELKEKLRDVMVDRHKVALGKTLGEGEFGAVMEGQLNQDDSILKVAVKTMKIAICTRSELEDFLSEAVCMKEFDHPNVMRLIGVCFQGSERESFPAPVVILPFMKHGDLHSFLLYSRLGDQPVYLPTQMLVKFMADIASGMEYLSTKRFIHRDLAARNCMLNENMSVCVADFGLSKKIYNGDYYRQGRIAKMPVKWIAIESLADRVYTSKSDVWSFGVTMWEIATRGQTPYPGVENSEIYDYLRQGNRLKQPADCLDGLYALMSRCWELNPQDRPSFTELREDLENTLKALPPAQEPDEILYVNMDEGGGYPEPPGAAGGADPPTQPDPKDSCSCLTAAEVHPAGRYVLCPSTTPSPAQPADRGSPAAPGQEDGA
UniProt Q92823, residues 25-1167: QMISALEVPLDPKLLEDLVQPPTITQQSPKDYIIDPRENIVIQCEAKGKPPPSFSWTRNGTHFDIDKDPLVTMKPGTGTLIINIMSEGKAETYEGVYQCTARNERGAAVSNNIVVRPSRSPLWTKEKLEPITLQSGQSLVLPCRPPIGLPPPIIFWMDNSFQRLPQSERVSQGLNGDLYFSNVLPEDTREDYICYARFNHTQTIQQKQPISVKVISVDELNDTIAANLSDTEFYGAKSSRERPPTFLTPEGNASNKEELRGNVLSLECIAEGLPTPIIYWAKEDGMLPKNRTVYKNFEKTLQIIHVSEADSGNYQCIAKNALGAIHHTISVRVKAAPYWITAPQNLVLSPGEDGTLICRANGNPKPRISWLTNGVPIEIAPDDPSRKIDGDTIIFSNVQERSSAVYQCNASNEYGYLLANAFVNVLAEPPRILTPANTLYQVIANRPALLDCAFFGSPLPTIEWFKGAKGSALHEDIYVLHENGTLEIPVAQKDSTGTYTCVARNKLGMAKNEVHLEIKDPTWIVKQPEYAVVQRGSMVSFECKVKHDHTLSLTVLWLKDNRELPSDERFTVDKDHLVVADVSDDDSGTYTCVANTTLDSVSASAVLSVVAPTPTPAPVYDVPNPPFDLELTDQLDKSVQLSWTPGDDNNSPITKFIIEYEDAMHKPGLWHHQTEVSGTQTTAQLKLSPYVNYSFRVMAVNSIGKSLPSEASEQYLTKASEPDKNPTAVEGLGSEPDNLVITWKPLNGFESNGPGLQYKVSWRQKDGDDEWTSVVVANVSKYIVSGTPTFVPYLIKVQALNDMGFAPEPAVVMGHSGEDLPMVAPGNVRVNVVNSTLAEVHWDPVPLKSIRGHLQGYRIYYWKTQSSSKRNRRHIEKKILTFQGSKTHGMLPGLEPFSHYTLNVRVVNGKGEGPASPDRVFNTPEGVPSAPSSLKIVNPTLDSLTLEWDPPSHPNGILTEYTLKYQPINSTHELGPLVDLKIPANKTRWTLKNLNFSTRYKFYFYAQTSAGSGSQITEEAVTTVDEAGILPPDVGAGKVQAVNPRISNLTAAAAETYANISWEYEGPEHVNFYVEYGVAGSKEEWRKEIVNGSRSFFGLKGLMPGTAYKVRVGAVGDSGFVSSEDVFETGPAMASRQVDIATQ

[7] = molecular target: NRCAM (recombinant) (human) (UniProt Q92823); assay: SPR, NRCAM immobilized, CNTN1 ECD-Fc injected at 250 nM
[8] = molecular target: ANTRX1; assay: cell surface interaction assay: query ECD tetramerised with fluorescent streptavidin on transfected cells, immunofluorescence

B1: CDH9-FLAG (receptor, human, UniProt Q9ULB4 54-789, looked up)
immunoprecipitated protein: GWMWNQFFLLEEYTGTDTQYVGKLHTDQDKGDGNLKYILTGDGAGSLFVIDENTGDIHAAKKLDREEKSLYILRAKAIDRKTGRQVEPESEFIIKIHDINDNEPKFTKDLYTASVPEMSGVGTSVIQVTATDADDANYGNSAKVVYSILQGQPYFSVDPESGIIKTALPDMSRENREQYQVVIQAKDMGGQMGGLSGTTTVNITLTDVNNNPPRFPQSTYQFNSPESVPLGTHLGRIKANDPDVGENAEMEYSIAEGDGADMFDVITDKDTQEGIITVKQNLDFENQMLYTLRVDASNTHPDPRFLHLGPFKDTAVVKISVEDIDEPPVFTKVSYLIEVDEDVKEGSIIGQVTAYDPDARNNLIKYSVDRHTDMDRIFGIHSENGSIFTLKALDRESSPWHNITVTATEINNPKQSSHIPVFIRILDINDHAPEFAMYYETFVCENAKPGQLIQTVSVMDKDDPPRGHKFFFEPVPEFTLNPNFTIVDNKDNTAGIMTRKDGYSRNKMSTYLLPILIFDNDYPIQSSTGTLTIRVCACDNQGNMQSCTAEALILSAGLSTGALVAILLCVLILLILVVLFAALKRQRKKEPLIISKDDVRDNIVTYNDEGGGEEDTQAFDIGTLRNPEAREDSKLRRDVMPETIFQIRRTVPLWENIDVQDFIHRRLKENDADPSAPPYDSLATYAYEGNDSIADSLSSLESLTADCNQDYDYLSDWGPRFKKLADMYGGDDSDRD
[1]
  binding: binds

B2: LRRC4B expressed on cells (receptor, human, UniProt Q9NT99 36-713, looked up)
chain: AGGGGVAVTSAAGGGSPPATSCPVACSCSNQASRVICTRRDLAEVPASIPVNTRYLNLQENGIQVIRTDTFKHLRHLEILQLSKNLVRKIEVGAFNGLPSLNTLELFDNRLTTVPTQAFEYLSKLRELWLRNNPIESIPSYAFNRVPSLRRLDLGELKRLEYISEAAFEGLVNLRYLNLGMCNLKDIPNLTALVRLEELELSGNRLDLIRPGSFQGLTSLRKLWLMHAQVATIERNAFDDLKSLEELNLSHNNLMSLPHDLFTPLHRLERVHLNHNPWHCNCDVLWLSWWLKETVPSNTTCCARCHAPAGLKGRYIGELDQSHFTCYAPVIVEPPTDLNVTEGMAAELKCRTGTSMTSVNWLTPNGTLMTHGSYRVRISVLHDGTLNFTNVTVQDTGQYTCMVTNSAGNTTASATLNVSAVDPVAAGGTGSGGGGPGGSGGVGGGSGGYTYFTTVTVETLETQPGEEALQPRGTEKEPPGPTTDGVWGGGRPGDAAGPASSSTTAPAPRSSRPTEKAFTVPITDVTENALKDLDDVMKTTKIIIGCFVAITFMAAVMLVAFYKLRKQHQLHKHHGPTRTVEIINVEDELPAASAVSVAAAAAVASGGGVGGDSHLALPALERDHLNHHHYVAAAFKAHYSSNPSGGGCGGKGPPGLNSIHEPLLFKSGSKENVQETQI
[2]
  binding: binds
[3]
  binding: binds
[4]
  binding: binds
[1]
  binding: binds

B3: VSIG10L full-length (co-IP) (receptor, human, UniProt Q86VR7 28-867, looked up)
chain: LQQTNFSSAFSSDSKSSSQGLGVEVPSIKPPSWKVPDQFLDSKASAGISDSSWFPEALSSNMSGSFWSNVSAEGQDLSPVSPFSETPGSEVFPDISDPQVPAKDPKPSFTVKTPASNISTQVSHTKLSVEAPDSKFSPDDMDLKLSAQSPESKFSAETHSAASFPQQVGGPLAVLVGTTIRLPLVPIPNPGPPTSLVVWRRGSKVLAAGGLGPGAPLISLDPAHRDHLRFDQARGVLELASAQLDDAGVYTAEVIRAGVSQQTHEFTVGVYEPLPQLSVQPKAPETEEGAAELRLRCLGWGPGRGELSWSRDGRALEAAESEGAETPRMRSEGDQLLIVRPVRSDHARYTCRVRSPFGHREAAADVSVFYGPDPPTITVSSDRDAAPARFVTAGSNVTLRCAAASRPPADITWSLADPAEAAVPAGSRLLLPAVGPGHAGTYACLAANPRTGRRRRSLLNLTVADLPPGAPQCSVEGGPGDRSLRFRCSWPGGAPAASLQFQGLPEGIRAGPVSSVLLAAVPAHPRLSGVPITCLARHLVATRTCTVTPEAPREVLLHPLVAETRLGEAEVALEASGCPPPSRASWAREGRPLAPGGGSRLRLSQDGRKLHIGNFSLDWDLGNYSVLCSGALGAGGDQITLIGPSISSWRLQRARDAAVLTWDVERGALISSFEIQAWPDGPALGRTSTYRDWVSLLILGPQERSAVVPLPPRNPGTWTFRILPILGGQPGTPSQSRVYRAGPTLSHGAIAGIVLGSLLGLALLAVLLLLCICCLCRFRGKTPEKKKHPSTLVPVVTPSEKKMHSVTPVEISWPLDLKVPLEDHSSTRAYQAQTPVQLSL
[5]
  binding: binds

B4: CNTN1 extracellular domain (receptor, human, UniProt Q12860 21-993, looked up)
chain: EFTWYRRYGHGVSEEDKGFGPIFEEQPINTIYPEESLEGKVSLNCRARASPFPVYKWRMNNGDVDLTSDRYSMVGGNLVINNPDKQKDAGIYYCLASNNYGMVRSTEATLSFGYLDPFPPEERPEVRVKEGKGMVLLCDPPYHFPDDLSYRWLLNEFPVFITMDKRRFVSQTNGNLYIANVEASDKGNYSCFVSSPSITKSVFSKFIPLIPIPERTTKPYPADIVVQFKDVYALMGQNVTLECFALGNPVPDIRWRKVLEPMPSTAEISTSGAVLKIFNIQLEDEGIYECEAENIRGKDKHQARIYVQAFPEWVEHINDTEVDIGSDLYWPCVATGKPIPTIRWLKNGYAYHKGELRLYDVTFENAGMYQCIAENTYGAIYANAELKILALAPTFEMNPMKKKILAAKGGRVIIECKPKAAPKPKFSWSKGTEWLVNSSRILIWEDGSLEINNITRNDGGIYTCFAENNRGKANSTGTLVITDPTRIILAPINADITVGENATMQCAASFDPALDLTFVWSFNGYVIDFNKENIHYQRNFMLDSNGELLIRNAQLKHAGRYTCTAQTIVDNSSASADLVVRGPPGPPGGLRIEDIRATSVALTWSRGSDNHSPISKYTIQTKTILSDDWKDAKTDPPIIEGNMEAARAVDLIPWMEYEFRVVATNTLGRGEPSIPSNRIKTDGAAPNVAPSDVGGGGGRNRELTITWAPLSREYHYGNNFGYIVAFKPFDGEEWKKVTVTNPDTGRYVHKDETMSPSTAFQVKVKAFNNKGDGPYSLVAVINSAQDAPSEAPTEVGVKVLSSSEISVHWEHVLEKIVESYQIRYWAAHDKEEAANRVQVTSQEYSARLENLLPDTQYFIEVGACNSAGCGPPSDMIEAFTKKAPPSQPPRIISSVRSGSRYIITWDHVVALSNESTVTGYKVLYRPDGQHDGKLYSTHKHSIEVPIPRDGEYVVEVRAHSDGGDGVVSQVKIS
[6]
  binding: binds
[7]
  binding: binds

B5: TREML2 (receptor, human, UniProt Q5T2D2 19-268, looked up)
soluble query ectodomain: GPSADSVYTKVRLLEGETLSVQCSYKGYKNRVEGKVWCKIRKKKCEPGFARVWVKGPRYLLQDDAQAKVVNITMVALKLQDSGRYWCMRNTSGILYPLMGFQLDVSPAPQTERNIPFTHLDNILKSGTVTTGQAPTSGPDAPFTTGVMVFTPGLITLPRLLASTRPASKTGYSFTATSTTSQGPRRTMGSQTVTASPSNARDSSAGPESISTKSGDLSTRSPTTGLCLTSRSLLNRLPSMPSIRHQDVYS
modifications: biotinylated
[8]
  binding: binds

B6: LRRC4C-FLAG (receptor, human, UniProt Q9HCJ2 45-640, looked up)
immunoprecipitated protein: QTCPSVCSCSNQFSKVICVRKNLREVPDGISTNTRLLNLHENQIQIIKVNSFKHLRHLEILQLSRNHIRTIEIGAFNGLANLNTLELFDNRLTTIPNGAFVYLSKLKELWLRNNPIESIPSYAFNRIPSLRRLDLGELKRLSYISEGAFEGLSNLRYLNLAMCNLREIPNLTPLIKLDELDLSGNHLSAIRPGSFQGLMHLQKLWMIQSQIQVIERNAFDNLQSLVEINLAHNNLTLLPHDLFTPLHHLERIHLHHNPWNCNCDILWLSWWIKDMAPSNTACCARCNTPPNLKGRYIGELDQNYFTCYAPVIVEPPADLNVTEGMAAELKCRASTSLTSVSWITPNGTVMTHGAYKVRIAVLSDGTLNFTNVTVQDTGMYTCMVSNSVGNTTASATLNVTAATTTPFSYFSTVTVETMEPSQDEARTTDNNVGPTPVVDWETTNVTTSLTPQSTRSTEKTFTIPVTDINSGIPGIDEVMKTTKIIIGCFVAITLMAAVMLVIFYKMRKQHHRQNHHAPTRTVEIINVDDEITGDTPMESHLPMPAIEHEHLNHYNSYKSPFNHTTTVNTINSIHSSVHEPLLIRMNSKDNVQETQI
[1]
  binding: binds
